These are yes or no findings as the source states them, for the method shown. Binding can be weak; no strength is given.

The assay deals with T1, purified complement factor I (UniProt Q61129).
T1 sequence: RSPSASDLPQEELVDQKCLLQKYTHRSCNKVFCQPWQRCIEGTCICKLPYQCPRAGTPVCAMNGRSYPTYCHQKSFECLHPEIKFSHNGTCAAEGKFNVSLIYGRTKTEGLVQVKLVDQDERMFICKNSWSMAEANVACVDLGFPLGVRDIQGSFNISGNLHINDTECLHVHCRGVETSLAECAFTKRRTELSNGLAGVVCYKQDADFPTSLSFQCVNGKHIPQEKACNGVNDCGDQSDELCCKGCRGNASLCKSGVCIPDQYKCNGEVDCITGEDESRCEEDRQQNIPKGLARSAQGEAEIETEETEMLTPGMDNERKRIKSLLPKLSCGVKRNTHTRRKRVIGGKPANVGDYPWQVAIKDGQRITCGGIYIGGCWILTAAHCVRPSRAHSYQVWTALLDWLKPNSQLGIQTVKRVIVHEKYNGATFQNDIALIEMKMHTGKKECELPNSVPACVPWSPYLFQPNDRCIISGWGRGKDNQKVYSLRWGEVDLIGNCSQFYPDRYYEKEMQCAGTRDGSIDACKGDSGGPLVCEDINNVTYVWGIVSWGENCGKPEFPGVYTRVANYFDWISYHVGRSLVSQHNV
The assay can be described thus: ELISA; CFI (20 µg/ml) or C3b (20 µg/ml) coated overnight at 4 °C; rmCD46 or mutants (40 µg/ml) at 37 °C for 2 h; anti-His detection; both purified. For orientation: In an ELISA, binding on a coated surface is turned into a signal by an enzyme label.

As for “rmCD46ΔCCP2 (mouse) (domain or fragment)”, the binding result is listed as “binds”.

As for “rmCD46ΔCCP12 (mouse) (domain or fragment)”, the binding entry was “binds”.

Values taken from publication PMC9243006.
